No constants are given. Whether binding was seen depends on the method and setting. In cells and extracts the contact can be indirect. Some entries that bind do so weakly or less than the wild type.
What was measured:
Assay in all cases: co-IP; HA-tagged RAB7 proteins expressed in Neuro2A cells, cells lysed, immunoprecipitated with anti-HA affinity gel, Western blot with anti-peripherin and anti-HA antibodies
HA-tagged RAB7^K126R = HA-tagged RAB7^K126R (UniProt P51149)
HA-tagged RAB7^V162M = HA-tagged RAB7^V162M (UniProt P51149)
HA-tagged RAB7^wt = HA-tagged RAB7^wt (UniProt P51149)

By UniProt entry, the sequences of proteins in these tests, tags left out. Where a name states a change or a piece, a line headed by the entry shows the natural chain unless it says otherwise.
UniProt P51149: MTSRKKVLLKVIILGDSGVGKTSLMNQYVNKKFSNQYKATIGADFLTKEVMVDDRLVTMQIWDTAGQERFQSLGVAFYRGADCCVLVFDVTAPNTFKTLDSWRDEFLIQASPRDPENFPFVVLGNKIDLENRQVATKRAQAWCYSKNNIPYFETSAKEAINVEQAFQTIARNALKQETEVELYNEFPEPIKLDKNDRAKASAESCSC
UniProt P15331: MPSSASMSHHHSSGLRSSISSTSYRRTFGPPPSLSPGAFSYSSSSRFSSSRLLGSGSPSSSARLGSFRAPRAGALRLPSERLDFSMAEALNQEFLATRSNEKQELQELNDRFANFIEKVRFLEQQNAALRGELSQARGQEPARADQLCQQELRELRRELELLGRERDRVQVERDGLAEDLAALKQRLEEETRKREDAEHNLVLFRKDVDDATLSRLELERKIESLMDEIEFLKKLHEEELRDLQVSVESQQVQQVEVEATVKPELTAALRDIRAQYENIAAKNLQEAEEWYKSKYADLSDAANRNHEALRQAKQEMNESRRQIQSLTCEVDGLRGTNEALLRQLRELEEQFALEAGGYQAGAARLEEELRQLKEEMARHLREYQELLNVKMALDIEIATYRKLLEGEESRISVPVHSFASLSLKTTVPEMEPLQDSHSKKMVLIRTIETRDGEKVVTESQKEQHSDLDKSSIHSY

Measured: binding

peripherin (from UniProt P15331 1-475)
binds: all assays above
